Data published in patent US6815205B2, “Auxinic analogues of indole-3-acetic acid” (Invitrogen Corporation, priority 1995, dated 2004).
At least one structure is not confirmed: it was looked up by name or label, or the drawing left a doubt.

System: tobacco leaves
Test: Alleviation of physical damage (microprojectile bombardment) in tobacco explants with auxin
Type: cell-based
Conditions: 0.5 mg/l BAP and 2 mg/l auxin for three days, compared to BAP only

**Q.** `O=C(O)Cc1cccc2ccccc12` [NAA, naphthaleneacetic acid] was tested. Which “regeneration of tobacco shoots after microprojectile bombardment” value did it give?
**A.** The value was “Significant improvement of the regeneration of tobacco shoots”.
